Experiment [1] addresses PAX8-BioID-HA fusion protein (human (endogenous in IGROV-1)) (UniProt Q06710). Kind of experiment: proximity labelling; BioID-WB: IGROV-1 PAX8-BioID clones B3 and C5, 50 uM biotin or DMSO for 24 h, RIPA lysate, streptavidin beads overnight at 4 °C, Western blot.
The target is the same in experiment [2]. Kind of experiment: proximity labelling; BioID with quantitative TMT mass spectrometry: IGROV-1 PAX8-BioID cells with or without 10 uM biotin for 24 h, RIPA lysate, streptavidin-agarose enrichment, on-bead digestion.

Protein sequences, listed by entry. Tags and fused reporters are not part of them. Lines headed by an entry give the natural chain unless they say otherwise; changes in a name come on top. Chains listed by the source or under a name are the forms on record and can include a tag or linker.
UniProt Q06710: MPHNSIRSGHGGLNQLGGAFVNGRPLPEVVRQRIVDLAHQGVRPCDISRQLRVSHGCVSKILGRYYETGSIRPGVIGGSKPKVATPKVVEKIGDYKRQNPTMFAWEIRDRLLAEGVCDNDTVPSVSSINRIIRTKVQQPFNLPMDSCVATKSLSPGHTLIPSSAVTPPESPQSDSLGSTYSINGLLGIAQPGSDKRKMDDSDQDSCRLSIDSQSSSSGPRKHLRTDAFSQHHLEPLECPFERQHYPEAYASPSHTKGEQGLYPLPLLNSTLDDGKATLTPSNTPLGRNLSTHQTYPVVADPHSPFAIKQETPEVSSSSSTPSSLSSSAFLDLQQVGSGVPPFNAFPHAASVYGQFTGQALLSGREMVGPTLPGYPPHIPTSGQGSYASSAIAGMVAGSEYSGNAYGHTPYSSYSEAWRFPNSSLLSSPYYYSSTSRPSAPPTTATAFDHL
MECOM (Q03112-3, form named): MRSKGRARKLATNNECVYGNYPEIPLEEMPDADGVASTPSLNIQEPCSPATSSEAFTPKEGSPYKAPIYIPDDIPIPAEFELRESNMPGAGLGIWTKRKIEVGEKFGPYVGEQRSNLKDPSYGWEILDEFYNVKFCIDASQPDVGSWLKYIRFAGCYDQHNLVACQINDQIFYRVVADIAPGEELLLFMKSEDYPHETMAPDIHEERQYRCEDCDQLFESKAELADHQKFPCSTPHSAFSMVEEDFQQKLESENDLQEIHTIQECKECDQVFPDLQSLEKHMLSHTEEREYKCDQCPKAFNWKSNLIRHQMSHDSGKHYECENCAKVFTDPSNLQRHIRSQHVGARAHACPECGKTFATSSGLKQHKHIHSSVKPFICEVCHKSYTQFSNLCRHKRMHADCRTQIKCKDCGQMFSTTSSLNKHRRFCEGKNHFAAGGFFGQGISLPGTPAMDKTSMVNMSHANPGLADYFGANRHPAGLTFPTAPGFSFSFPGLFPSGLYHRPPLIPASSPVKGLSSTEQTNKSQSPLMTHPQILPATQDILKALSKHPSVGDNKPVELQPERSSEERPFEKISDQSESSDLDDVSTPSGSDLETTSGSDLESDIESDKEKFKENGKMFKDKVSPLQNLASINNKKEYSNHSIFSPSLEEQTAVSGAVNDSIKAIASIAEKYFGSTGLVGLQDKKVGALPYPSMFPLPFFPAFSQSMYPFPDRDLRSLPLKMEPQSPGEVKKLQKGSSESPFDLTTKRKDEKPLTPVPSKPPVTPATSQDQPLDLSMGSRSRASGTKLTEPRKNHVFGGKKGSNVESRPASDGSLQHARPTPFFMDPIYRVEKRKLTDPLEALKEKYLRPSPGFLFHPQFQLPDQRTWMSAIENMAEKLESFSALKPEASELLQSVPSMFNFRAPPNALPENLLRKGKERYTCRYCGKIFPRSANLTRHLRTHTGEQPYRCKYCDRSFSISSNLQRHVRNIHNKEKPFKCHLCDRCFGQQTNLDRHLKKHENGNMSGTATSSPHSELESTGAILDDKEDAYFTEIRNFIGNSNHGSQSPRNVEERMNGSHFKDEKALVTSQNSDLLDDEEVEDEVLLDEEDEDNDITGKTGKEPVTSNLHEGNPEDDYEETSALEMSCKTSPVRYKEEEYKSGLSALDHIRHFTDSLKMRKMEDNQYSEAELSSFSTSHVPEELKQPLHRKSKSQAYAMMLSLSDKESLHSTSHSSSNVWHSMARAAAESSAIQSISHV

No constants are given. Whether binding was seen depends on the method and setting. Binding seen in cells or lysates may run through a third protein. Here binding means that the protein was enriched with, or labelled near, the bait; the list need not be complete.

Experimental findings from publication PMC8076227 are described below.

“MDS1-EVI1 (PRDM3) (from UniProt Q03112-3 1-1239)”: the binding result in experiment [1] was “binds”. In the case of MECOM (from UniProt Q03112-3 1-1239), in experiment [2], the binding result is given as “binds”.
